Laboratory results: patent US6087119A, “Method for determining the catalytic activity of factor IXa” (Roche Diagnostics GmbH, priority 1996, dated 2000)
At least one peptide structure holds a part that was inferred or is arguable (an end, a ring closure or a residue). Square brackets hold non-standard residues; d marks the D form. Peptide text beside a SMILES is read from it. * marks the point of attachment. dChg = N[C@@H](C(=O)O)C1CCCCC1; pNA = O=[N+]([O-])c1ccc(N*)cc1; Ms = CS(=O)(=O)*

Protein sequences, listed by entry. Tags and fused reporters are not part of them. Residues count along the entry.
UniProt P00740, 131-226: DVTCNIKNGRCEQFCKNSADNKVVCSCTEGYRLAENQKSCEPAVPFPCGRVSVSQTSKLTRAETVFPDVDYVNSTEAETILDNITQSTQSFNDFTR
UniProt P00740, 227-461: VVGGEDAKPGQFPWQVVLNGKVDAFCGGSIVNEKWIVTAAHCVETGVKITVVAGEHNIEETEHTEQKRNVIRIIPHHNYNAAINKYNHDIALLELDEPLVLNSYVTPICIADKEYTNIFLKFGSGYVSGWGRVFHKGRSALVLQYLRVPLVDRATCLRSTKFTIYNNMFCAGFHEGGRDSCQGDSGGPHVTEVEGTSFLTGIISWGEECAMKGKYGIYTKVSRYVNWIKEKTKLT

Molecular target: rFIXa (human) (Homo sapiens, UniProt P00740)
Test: Influence of the pH on the activity of rFIXa in the presence of ethylene glycol
Format: biochemical
Parameters: coding for the FIX protease domain from amino acid position 181 to 415; Met (ATG start codon) (N); made in house
Details: pH 7.0-10.0; with and without 25% ethylene glycol
Excerpt: 0.28 μmol/l rFIXa (human)

With `CS(=O)(=O)N[C@@H](C(=O)NCC(=O)N[C@@H](CCCNC(=N)N)C(=O)Nc1ccc([N+](=O)[O-])cc1)C1CCCCC1` [MeSO2 --D--CHG--Gly--Arg--pNA, MeSO2 -D-CHG-Gly-Arg-pNA] (Ms-[dChg]-Gly-Arg-pNA) the “effectiveness of cleavage by rFIXa among the substrates (in words)” value was “cleaved most effectively”.
